Results on two molecules are retold here after paper PMC8456271.

Results are given in words; binding and its absence hold for the method and conditions named. In cells and extracts the contact can be indirect. Binding can be weak; no strength is given. For part of these data: Tags and fused reporters may be left off the sequences shown.

The target of test [1] is T1, DDIT4 (endogenous, murine liver) (mouse (endogenous in murine liver)) (UniProt Q9D3F7).
T1 sequence: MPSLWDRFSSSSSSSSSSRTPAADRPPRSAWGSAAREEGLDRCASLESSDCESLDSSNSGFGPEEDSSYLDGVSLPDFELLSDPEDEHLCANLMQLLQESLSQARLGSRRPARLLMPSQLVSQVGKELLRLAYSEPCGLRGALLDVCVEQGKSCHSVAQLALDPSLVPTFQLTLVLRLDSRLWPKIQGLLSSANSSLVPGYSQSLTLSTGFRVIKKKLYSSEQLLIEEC
The test is described as follows: co-IP; livers of C57/BL mice fed an MCD diet for 4 weeks; IP with anti‐DDIT4, endogenous proteins.

The target of test [2] is T2, FLAG‐tagged WT DDIT4 (DNA damage‐induced transcript 4) (UniProt Q9NX09).
T2 sequence: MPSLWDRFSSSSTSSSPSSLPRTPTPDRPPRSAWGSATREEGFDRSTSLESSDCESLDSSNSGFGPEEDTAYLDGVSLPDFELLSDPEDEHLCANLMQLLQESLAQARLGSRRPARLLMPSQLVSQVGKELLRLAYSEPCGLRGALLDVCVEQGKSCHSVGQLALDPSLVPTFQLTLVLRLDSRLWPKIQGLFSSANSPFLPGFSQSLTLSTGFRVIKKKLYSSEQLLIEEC
The test is described as follows: co-IP; primary murine hepatocytes infected with Ad‐FLAG‐DDIT4, PA (0.4 × 10^−3 M) for 12 h; IP with anti‐FLAG.

Test [3] concerns the target p38 (endogenous, mouse) (mouse (endogenous in primary murine hepatocytes and murine liver)). The test is described as follows: co-IP; livers of C57/B6 mice injected with adenovirus carrying DDIT4 shRNA or control adenovirus, MCD feeding for 4 weeks; IP with anti‐p38, endogenous proteins.

For p38 (endogenous, mouse), the binding result in test [1] and in test [2] was “binds” throughout.

B1: MKK3 (endogenous, mouse) (protein, UniProt O09110 1-347)
chain: MESPAASPPASLPQTKGKSKRKKDLRISCVSKPPVSNPTPPRNLDSRTFITIGDRNFEVEADDLVTISELGRGAYGVVEKVRHAQSGTIMAVKRIRATVNTQEQKRLLMDLDINMRTVDCFYTVTFYGALFREGDVWICMELMDTSLDKFYRKVLEKNMKIPEDILGEIAVSIVRALEHLHSKLSVIHRDVKPSNVLINKEGHVKMCDFGISGYLVDSVAKTMDAGCKPYMAPERINPELNQKGYNVKSDVWSLGITMIEMAILRFPYESWGTPFQQLKQVVEEPSPQLPADQFSPEFVDFTSQCLRKNPAERMSYLELMEHPFFTLHKTKKTDIAAFVKEILGEDS
With B1, the binding result in test [3] is on record as “binds”.
